Screening data

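A panel of P. falciparum strains inside erythrocytes is exposed to compounds for three days, then a DNA-binding dye reports the amount of parasite DNA. Each compound was titrated across a series from about 0.000037 to 29 µM. The number is the fitted AC50, the concentration giving a half-maximal change in signal; a lower value means higher potency, whether the curve shows a decrease or an increase. Calls follow the curve class and fit quality: every row here is inconclusive, covering signal-raising curves and weak, poorly fitted, partial or highest-dose-only inhibition curves.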

Values are in nM. All entries here are filed as inconclusive. Only part of the assay is shown, chiefly results filed as inconclusive. A potency from a partial, single-point or poor curve is only a rough figure. The first word of each remark tells which way the curve ran; it can be opposite to the aim of the assay.

structure,condition,potency (nM),curve
Nc1ccc([As](=O)(O)O)cc1,P94_40,11220,"inhibitor, single point"
Nc1ccc([As](=O)(O)O)cc1,GB4,21331,"inhibitor, partial curve, poor fit"
Cc1c(N(C)C)c(=O)n(-c2ccccc2)n1C,CP291,19011,"activator, single point"
CC[C@@H]1OC(=O)[C@H](C)[C@H](O[C@@H]2C[C@](C)(OC)[C@H](O)[C@H](C)O2)[C@H](C)[C@H](O[C@@H]2O[C@@H](C)C[C@@H](N(C)C)[C@@H]2O)[C@](C)(O)C[C@H](C)C(=NOCOCCOC)[C@H](C)[C@H](O)[C@]1(C)O,CP269,572.5,"inhibitor, partial curve, poor fit"
CC[C@@H]1OC(=O)[C@H](C)[C@H](O[C@@H]2C[C@](C)(OC)[C@H](O)[C@H](C)O2)[C@H](C)[C@H](O[C@@H]2O[C@@H](C)C[C@@H](N(C)C)[C@@H]2O)[C@](C)(O)C[C@H](C)C(=NOCOCCOC)[C@H](C)[C@H](O)[C@]1(C)O,parasite line A,3548,"inhibitor, partial curve"
CC[C@@H]1OC(=O)[C@H](C)[C@H](O[C@@H]2C[C@](C)(OC)[C@H](O)[C@H](C)O2)[C@H](C)[C@H](O[C@@H]2O[C@@H](C)C[C@@H](N(C)C)[C@@H]2O)[C@](C)(O)C[C@H](C)C(=NOCOCCOC)[C@H](C)[C@H](O)[C@]1(C)O,DFO2036,3548,"inhibitor, single point"
CC[C@@H]1OC(=O)[C@H](C)[C@H](O[C@@H]2C[C@](C)(OC)[C@H](O)[C@H](C)O2)[C@H](C)[C@H](O[C@@H]2O[C@@H](C)C[C@@H](N(C)C)[C@@H]2O)[C@](C)(O)C[C@H](C)C(=NOCOCCOC)[C@H](C)[C@H](O)[C@]1(C)O,CP260,3981,"inhibitor, single point"
CC[C@@H]1OC(=O)[C@H](C)[C@H](O[C@@H]2C[C@](C)(OC)[C@H](O)[C@H](C)O2)[C@H](C)[C@H](O[C@@H]2O[C@@H](C)C[C@@H](N(C)C)[C@@H]2O)[C@](C)(O)C[C@H](C)C(=NOCOCCOC)[C@H](C)[C@H](O)[C@]1(C)O,CP252,141.3,"inhibitor, full curve, poor fit"
CC[C@@H]1OC(=O)[C@H](C)[C@H](O[C@@H]2C[C@](C)(OC)[C@H](O)[C@H](C)O2)[C@H](C)[C@H](O[C@@H]2O[C@@H](C)C[C@@H](N(C)C)[C@@H]2O)[C@](C)(O)C[C@H](C)C(=NOCOCCOC)[C@H](C)[C@H](O)[C@]1(C)O,CP215,8087,"inhibitor, single point"
CC[C@@H]1OC(=O)[C@H](C)[C@H](O[C@@H]2C[C@](C)(OC)[C@H](O)[C@H](C)O2)[C@H](C)[C@H](O[C@@H]2O[C@@H](C)C[C@@H](N(C)C)[C@@H]2O)[C@](C)(O)C[C@H](C)C(=NOCOCCOC)[C@H](C)[C@H](O)[C@]1(C)O,CP191,3548,"inhibitor, partial curve, poor fit"
CC[C@@H]1OC(=O)[C@H](C)[C@H](O[C@@H]2C[C@](C)(OC)[C@H](O)[C@H](C)O2)[C@H](C)[C@H](O[C@@H]2O[C@@H](C)C[C@@H](N(C)C)[C@@H]2O)[C@](C)(O)C[C@H](C)C(=NOCOCCOC)[C@H](C)[C@H](O)[C@]1(C)O,CP211,9.1,"inhibitor, full curve, poor fit"
CC[C@@H]1OC(=O)[C@H](C)[C@H](O[C@@H]2C[C@](C)(OC)[C@H](O)[C@H](C)O2)[C@H](C)[C@H](O[C@@H]2O[C@@H](C)C[C@@H](N(C)C)[C@@H]2O)[C@](C)(O)C[C@H](C)C(=NOCOCCOC)[C@H](C)[C@H](O)[C@]1(C)O,CP297,8087,"inhibitor, single point"
CC(=O)O[C@H]1CC[C@H]2[C@@H]3CCC4=CC(=O)CCC4=C3C=C[C@]12C,P94_40,11220,"inhibitor, single point"
CC(=O)O[C@H]1CC[C@H]2[C@@H]3CCC4=CC(=O)CCC4=C3C=C[C@]12C,GB4,19011,"inhibitor, partial curve, poor fit"
CCCCc1nc(Cl)c(CO)n1Cc1ccc(-c2ccccc2-c2nn[nH]n2)cc1,PC26,21331,"inhibitor, single point"
CCCCc1nc(Cl)c(CO)n1Cc1ccc(-c2ccccc2-c2nn[nH]n2)cc1,CP269,7569,"inhibitor, partial curve"
CCCCc1nc(Cl)c(CO)n1Cc1ccc(-c2ccccc2-c2nn[nH]n2)cc1,CP256,15848,"inhibitor, single point"
CCCCc1nc(Cl)c(CO)n1Cc1ccc(-c2ccccc2-c2nn[nH]n2)cc1,CP185,8912,"inhibitor, single point"
CCCCc1nc(Cl)c(CO)n1Cc1ccc(-c2ccccc2-c2nn[nH]n2)cc1,CP315,15101,"inhibitor, partial curve"
CCCCc1nc(Cl)c(CO)n1Cc1ccc(-c2ccccc2-c2nn[nH]n2)cc1,Dd2,8912,"inhibitor, partial curve"
CCCCc1nc(Cl)c(CO)n1Cc1ccc(-c2ccccc2-c2nn[nH]n2)cc1,C2A,11220,"inhibitor, single point"
CCCCc1nc(Cl)c(CO)n1Cc1ccc(-c2ccccc2-c2nn[nH]n2)cc1,HB3,8912,"inhibitor, partial curve"
CCCCc1nc(Cl)c(CO)n1Cc1ccc(-c2ccccc2-c2nn[nH]n2)cc1,CP335,11995,"inhibitor, single point"
CCCCc1nc(Cl)c(CO)n1Cc1ccc(-c2ccccc2-c2nn[nH]n2)cc1,DIV17,5358,"inhibitor, partial curve"
CO/N=C(/C(=O)N[C@@H]1C(=O)N2C(C(=O)O)=C(CSc3nnnn3C)CS[C@H]12)c1csc(N)n1,CP203,11995,"inhibitor, single point"
CO/N=C(/C(=O)N[C@@H]1C(=O)N2C(C(=O)O)=C(CSc3nnnn3C)CS[C@H]12)c1csc(N)n1,CP266,1901,"inhibitor, partial curve, poor fit"
C=C1C(=O)O[C@@H]2[C@@H]1CC/C(C)=C\CC[C@@]1(C)O[C@H]21,ICS,11220,"inhibitor, single point"
C=C1C(=O)O[C@@H]2[C@@H]1CC/C(C)=C\CC[C@@]1(C)O[C@H]21,GB4,16944,"inhibitor, single point"
C=C1C(=O)O[C@@H]2[C@@H]1CC/C(C)=C\CC[C@@]1(C)O[C@H]21,N140,17782,"inhibitor, single point"
C=C1C(=O)O[C@@H]2[C@@H]1CC/C(C)=C\CC[C@@]1(C)O[C@H]21,CP335,16944,"inhibitor, single point"
C=C1C(=O)O[C@@H]2[C@@H]1CC/C(C)=C\CC[C@@]1(C)O[C@H]21,TAB109,7943,"inhibitor, partial curve"
C=C1C(=O)O[C@@H]2[C@@H]1CC/C(C)=C\CC[C@@]1(C)O[C@H]21,W2,19011,"inhibitor, single point"
C=C1C(=O)O[C@@H]2[C@@H]1CC/C(C)=C\CC[C@@]1(C)O[C@H]21,TAB165,17782,"inhibitor, single point"
CCCCCCCCCCCCCC[n+]1ccc(C)cc1,PC49,10000,"inhibitor, single point"
CCCCCCCCCCCCCC[n+]1ccc(C)cc1,JCK,11220,"inhibitor, single point"
CN(C)CC[C@@](O)(c1ccccc1)c1ccccc1Cl,parasite line B,8912,"inhibitor, single point"
CN(C)CC[C@@](O)(c1ccccc1)c1ccccc1Cl,CP192,9528,"inhibitor, partial curve"
CN(C)CC[C@@](O)(c1ccccc1)c1ccccc1Cl,PC49,12589,"inhibitor, single point"
CN(C)CC[C@@](O)(c1ccccc1)c1ccccc1Cl,HB3,12589,"inhibitor, single point"

Some entries from above, unchanged:

Result for C=C1C(=O)O[C@@H]2[C@@H]1CC/C(C)=C\CC[C@@]1(C)O[C@H]21 [N140] was potency 17782 nM (inhibitor, single point).
Result for CCCCc1nc(Cl)c(CO)n1Cc1ccc(-c2ccccc2-c2nn[nH]n2)cc1 [CP315] was potency 15101 nM (inhibitor, partial curve).

From PubChem BioAssay record AID504749 (NCATS, 2011).